We go through 63 compounds from PubChem BioAssay AID493014 (National Center for Advancing Translational Sciences (NCATS), 2011).

Molecules are shown by their SMILES. Some of the results follow. Shown are side measurements of this screen, not its main read-out; they come without a call. Most of these compounds were active or inconclusive in the main read-out, so they are no random draw. The note in brackets gives the kind of curve behind each potency; many fits are weak.

A short description of this assay: qHTS Assay to Find Inhibitors of Chronic Active B-Cell Receptor Signaling. To be noted: ABC-DLBCL IkBa-CBG/CBR reporter, luminescence ratio (green luciferase fused to IkBa over red control in TMD8 lymphoma cells), 4 h. An outline of the steps:
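TMD8 ABC-DLBCL cells carrying doxycycline-inducible green luciferase fused to IkappaBalpha plus unfused red luciferase were exposed to compounds (up to 46 uM) for 4 hrs at 37C. Activity came from the overlap-corrected green/red luminescence ratio.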
In general terms: qHTS replaces the single test concentration by a dilution series.

[1] abbreviates: measured here: CBR red luminescence, cell number.
Setting [2] is: measured here: IkBa-CBG green luminescence.

With `NS(=O)(=O)c1cccc(NC(=O)c2ccc(S(=O)(=O)N3CCCCCC3)cc2)c1`, the AC50 under setting [1] is 2.91 µM [rising, partial curve].

With `COc1ccc(CCNC(=O)CNC(=O)c2ccccc2Br)cc1OC`, the AC50 under setting [1] was 0.1 µM [rising, full curve, poor fit].

With `O=C(COc1ccc([N+](=O)[O-])cc1)Nc1ccc2c(c1)CCC2`, under setting [1], the AC50 is 20.6 µM [rising, partial curve, poor fit].

With `CCOc1ccc(NS(=O)(=O)c2ccc(NC(=S)NC(=O)C(C)C)cc2)cc1`, under setting [1], the AC50 was 0.82 µM [rising, partial curve, poor fit].

With `COC(=O)c1cc(-c2ccc(S(=O)(=O)N3CCCC3)cc2)c(C(F)(F)F)s1`, under setting [1], the AC50 is 7.94 µM [falling, partial curve].

For `Oc1c(CN2CCc3ccccc3C2)cc(Cl)c2cccnc12`, the AC50 under setting [1] was 29.1 µM [falling, single point].

On to `Cc1ccc(P(=O)(CSC(=N)N)c2ccc(C)cc2)cc1`, for which, under setting [1], the AC50 was 12.6 µM [falling, partial curve].

`Cn1c(CN2CCCC2)nc2cc(NC(=O)C3CCCCC3)ccc21`: under setting [1], the AC50 is 12.6 µM [falling, partial curve, poor fit].

As for `Cc1ccc(NC(=O)c2ccc(NC(=O)c3ccccc3)cc2)cc1C`, under setting [1], the AC50 is 6.31 µM [falling, partial curve].

For the compound `COc1ccc(C2C3=C(CCCC3=O)Nc3nc(SCc4ccccc4)nn32)cc1OC` (stereo not given), under setting [1], the AC50 is 0.651 µM [falling, full curve, poor fit].

Take `O=C(COc1ccccc1O)Nc1ccccc1Cl`: the AC50 under setting [1] was 1.26 µM [falling, full curve].

Turning to `Cc1c(NC(=O)c2cc3ccccc3oc2=O)c(=O)n(-c2ccccc2)n1C`, the AC50 under setting [1] is 2.59 µM [rising, single point].

For the compound `COc1ccc(N(C)S(=O)(=O)c2ccc3c(c2)oc(=O)n3C)cc1`, the AC50 under setting [1] is 4.11 µM [falling, single point].

As for `O=C(COc1ccc(Cl)cc1)Nc1ccc2oc(-c3ccncc3)nc2c1`, the AC50 under setting [1] was 3.26 µM [falling, single point].

Consider `O=c1[nH]c(/C=C\c2ccc(O)c(O)c2)nc(O)c1[N+](=O)[O-]`, for which the concentration at half-maximal activity (AC50) under setting [1] was 7.94 µM [falling, partial curve].

Turning to `COc1ccc(-c2onc(C)c2-c2cnn(-c3ccccc3)c2)c(O)c1C`, the AC50 under setting [1] was 11.2 µM [falling, partial curve, poor fit] and the AC50 under setting [2] was 31.6 µM [rising, partial curve, poor fit].

Turning to `O=C(c1cc[n+]([O-])cc1)N1CCCC(N2CCN(c3cccc(C(F)(F)F)c3)CC2)C1` (stereo not given), the AC50 under setting [1] was 0.891 µM [falling, full curve, poor fit].

`COc1ccc(C(=O)OCC(=O)c2c[nH]c3ccccc23)cc1OC`: the AC50 under setting [1] was 6.51 µM [falling, single point].

Turning to `Cc1ccc(C)c(CN2CCC(CNC(=O)Nc3ccc(F)c(Cl)c3)CC2)c1`, the AC50 under setting [1] was 11.2 µM [falling, partial curve, poor fit].

As for `CC(=O)Nc1ccc2nc(NC(=O)c3cccs3)sc2c1`, the AC50 under setting [1] is 1 µM [falling, full curve, poor fit].

As to `COc1ccc(-c2[nH]n(-c3ccc([N+](=O)[O-])cc3)c(=O)c2C=NCc2ccccc2)cc1`, the AC50 under setting [1] is 0.366 µM [rising, full curve].

As to `O=C(NCC1CCCO1)C1CCN(CC2CCCCC2)CC1` (stereo not given), the AC50 under setting [1] is 4.11 µM [rising, full curve].

Regarding `COC(=O)[C@H](C)N(Cc1ccc(Cl)c(Cl)c1)S(=O)(=O)CCN1CCCC1`, the AC50 under setting [1] is 16.4 µM [falling, partial curve].

For the compound `CCc1ccc(Nc2cc(=O)n(C3CCCCC3)c(=O)[nH]2)cc1`, the AC50 under setting [1] is 4.11 µM [rising, full curve].

`Cc1ccc(NC(=O)c2ccccc2Cl)c(Cl)c1`: the AC50 under setting [1] is 20.6 µM [rising, partial curve, poor fit].

Consider `Cc1ccc(NC(=O)c2cnc(N3CCN(c4ccccn4)CC3)c3ccccc23)c(Br)c1`, for which the AC50 under setting [1] is 12.6 µM [falling, partial curve].

For `CCOC(=O)c1c(C)n(CC(O)CN(CC)CC)c2cc(Br)c(OC)cc12` (stereo not given), the AC50 under setting [1] is 35.5 µM [falling, single point].

Consider `O=C(CSc1ccc(-c2cccs2)nn1)c1cccs1`, for which the AC50 under setting [1] was 15.8 µM [falling, single point].

On to `O=C(OCC(=O)N1CCc2ccccc21)c1ccccc1`, for which the AC50 under setting [1] was 14.1 µM [falling, single point].

For the compound `O=C(Oc1ccc(OC(=O)N2CCOCC2)cc1)c1ccccc1`, the AC50 under setting [1] is 20.6 µM [rising, single point].

On to `CSCC[C@H](NC(=O)COc1ccc(Cl)cc1Cl)c1nc2ccccc2[nH]1`, for which, under setting [1], the AC50 was 29.1 µM [falling, single point].

`COCCCn1c(-c2cccs2)nc2nc3ccccc3nc21`: the AC50 under setting [1] was 3.55 µM [rising, single point].

With `CN(C)c1nc(N)nc(N(c2ccccc2)c2ccccc2)n1`, under setting [1], the AC50 is 5.8 µM [rising, full curve, poor fit].

For `CC[C@]12c3[nH]c4ccccc4c3CCN1C(=O)C(CC(=O)NCc1cccc(C(F)(F)F)c1)C[C@@H]2C(=O)N1CCN(C(=O)c2ccco2)CC1` (stereo not given in full), the AC50 under setting [1] was 16.4 µM [falling, partial curve].

Consider `c1ccc(CCCc2nc(-c3cccnc3)no2)cc1`, for which the AC50 under setting [1] is 0.631 µM [rising, full curve, poor fit].

With `NC(=O)C1CCN(C2CC(=O)N(Cc3ccc(N4CCCC4=O)cc3)C2=O)CC1` (stereo not given), the AC50 under setting [1] is 2.31 µM [rising, partial curve, poor fit].

For `CCOc1ccc(-c2cc(C(=O)N/N=C(\C)c3cccnc3)c3ccccc3n2)c(OCC)c1`, under setting [1], the AC50 was 0.0891 µM [rising, full curve, poor fit].

For `C=CCc1c(C)nc2nc(SCC(=O)Nc3ccc(C)c(C)c3)nn2c1C`, the AC50 under setting [1] was 35.5 µM [falling, single point].

On to `O=C(Nc1ncc2c(n1)-c1ccccc1CC2)c1ccc(Cl)cc1`, for which the AC50 under setting [1] was 3.16 µM [falling, partial curve].

Turning to `Cc1cccc(C)c1NC(=O)CCCN1CC(C)OC(C)C1` (stereo not given), the AC50 under setting [1] is 29.1 µM [rising, single point].

With `OCCCNc1nc(-c2ccc(Cl)cc2)nnc1-c1ccccc1`, the AC50 under setting [1] was 8.2 µM [falling, partial curve].

Regarding `COc1ccc(CCN2C(=O)c3[nH]nc(-c4ccccc4O)c3C2c2cccc(Cl)c2)cc1` (stereo not given), the AC50 under setting [1] is 25.1 µM [falling, single point].

For the compound `CC(C)(C)n1nnnc1CN1CCN(C(c2ccccc2)c2ccccc2)CC1`, the AC50 under setting [1] was 14.6 µM [falling, partial curve].

Take `Cc1ccc2[nH]c(C(=O)N3CCCC(Nc4ccc(F)cc4)C3)cc2c1` (stereo not given): the AC50 under setting [1] was 35.5 µM [falling, single point].

`COC1=C(c2ccccc2)C(=O)c2ccccc2C1=O`: the AC50 under setting [1] was 23.1 µM [falling, single point].

`Cc1ccc(S(=O)(=O)Nc2ccncc2)c(C)c1N(C)S(=O)(=O)c1ccc(F)cc1`: the AC50 under setting [1] is 1.84 µM [rising, partial curve, poor fit].

On to `O=C(Nc1ccccc1)c1ccc(-c2ccc([N+](=O)[O-])cc2)o1`, for which the AC50 under setting [1] is 35.5 µM [falling, single point].

With `CC(C)Sc1nc2sc(-c3ccccc3)cc2c(=O)n1N`, the AC50 under setting [1] is 31.6 µM [falling, single point].

Regarding `COc1cc(-n2nnnc2SCC(=O)N2CCN(c3ccc(F)cc3)CC2)c(OC)cc1Cl`, the AC50 under setting [1] is 14.6 µM [rising, partial curve, poor fit].

As for `O=C(CCCN1C(=O)/C(=C/c2ccccc2)SC1=S)Nc1cccc(O)c1`, the AC50 under setting [1] was 11.2 µM [falling, partial curve].

With `COc1ccc(C(=O)/C=C\N2CCOCC2)cc1`, the AC50 under setting [1] is 1.84 µM [rising, full curve, poor fit].

With `COc1cc(C(=O)OCC(=O)c2c(N)n(C)c(=O)n(C)c2=O)ccc1OCCC(C)C`, under setting [1], the AC50 was 31.6 µM [rising, partial curve, poor fit].

For `O=C(NNC(=O)c1ccc(-n2cncn2)c([N+](=O)[O-])c1)c1cccc(Cl)c1`, under setting [1], the AC50 is 13 µM [falling, partial curve, poor fit].

In the case of `CSc1nc(N)c(C(=O)Nc2ccc([N+](=O)[O-])cc2)s1`, the AC50 under setting [1] was 0.112 µM [rising, full curve, poor fit].

Consider `CCCCCCCn1c2c(c(=N)c3ccccc31)CCC2`, for which the AC50 under setting [1] is 22.4 µM [falling, single point].

In the case of `Cc1ccc(NC(=O)c2csc(-c3ccccc3)c2C)cc1`, under setting [1], the AC50 is 17.8 µM [rising, partial curve, poor fit].

Consider `NC(=S)N/N=C\c1c2ccccc2cc2ccccc12`, for which the AC50 runs as follows: under setting [1], 2.59 µM [falling, partial curve, poor fit]; under setting [2], 18.4 µM [rising, partial curve, poor fit].

Consider `C/C(=N/NC(=O)c1ccc(O)cc1)c1cccc([N+](=O)[O-])c1`, for which, under setting [1], the AC50 is 0.731 µM [falling, full curve].

For `CCc1c(C(=O)NCCc2cccc(C)c2)[nH]c(C)c1C(C)=O`, under setting [1], the AC50 is 20 µM [falling, single point].

Consider `NC(=O)NCC(=O)N1CCC(C(O)(c2ccccc2)c2ccccc2)CC1`, for which the AC50 under setting [1] is 0.891 µM [rising, full curve, poor fit].

`CC(C)OC(=O)CC12CN3CN(C1)CC(CC(=O)OC(C)C)(C3)C2=O`: under setting [1], the AC50 is 4.47 µM [falling, full curve, poor fit].

`Cn1c(CCN2CCN(c3ccc(F)cc3)CC2)nc2cc(NC(=O)c3ccco3)ccc21`: the AC50 under setting [1] was 20 µM [falling, single point].

`Cc1cccc(C(=O)Oc2ccc(/C=N/O)cc2)c1`: the AC50 under setting [2] is 25.9 µM [falling, partial curve, poor fit].

One may read the AC50 as the concentration at which the activity in the assay is half-maximal.
